# Data from PubChem BioAssay AID504444 (National Center for Advancing Translational Sciences (NCATS), 2011).
# Among all 360,000 compounds or so, about 7,500 (2.1%) were called active. This list was built around the results that the source calls inconclusive (neither active nor inactive); the mix of calls is not that of the screen. The call rests on the fitted dose curve; in most records, active means well fitted inhibition curve with a large enough effect; inconclusive means small, poorly fitted or top-dose-only effect, or effect the other way; inactive means flat fitted curve, though single readings scatter. Potencies of inconclusive entries are doubtful fits and often do not repeat.
# Assay: Nrf2 qHTS screen for inhibitors; further: nearly all actives have a fitted effect of over 60% in size
# Settings: A549 ARE-Fluc reporter, luciferase luminescence, 18-24 h; series mostly up to 46 µM
# How it was run: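 Nrf2 function is reported as luminescence of an ARE-controlled luciferase in A549 cells. Compounds were tested at several concentrations, and a CellTiter-Fluor read on the same wells flagged cytotoxicity.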
# Potency means the concentration at half of the fitted maximal effect.
row,SMILES,Potency
1,Cc1ccc(/C(N)=N/OC(=O)c2ccc3c(c2)OCO3)cc1,"inconclusive: 16.4 µM [activator, partial curve]"
2,CCOC(=O)c1ccc(NC(=O)/C=C/c2cccs2)cc1,"inconclusive: 20.6 µM [activator, partial curve, poor fit]"
3,CCC1Sc2ccc(S(=O)(=O)Nc3ccc(OC)c(OC)c3)cc2NC1=O (centres undefined),"inconclusive: 20.6 µM [falling, single point]"
4,CCC(=O)NCCn1ccc2ccccc21,"inconclusive: 0.0517 µM [falling, partial curve, poor fit]"
5,NCCCCCc1nnc(SCc2ccccc2Cl)o1,active: 13 µM
6,CS(=O)(=O)Nc1ccc(C2=NN(C(=O)c3ccco3)C(c3ccc(F)cc3)C2)cc1 (centres undefined),"inconclusive: 29.1 µM [activator, single point]"
7,Cc1ccc(C(=O)NCC(=O)Nc2ccc(C)c(S(=O)(=O)Nc3ccc(Cl)cc3)c2)s1,"inconclusive: 23.1 µM [falling, single point]"
8,CCOc1ccccc1OCC(=O)Nc1ccc(S(=O)(=O)Nc2nc(C)cc(C)n2)cc1,"inconclusive: 14.6 µM [falling, partial curve, poor fit]"
9,Cc1ccn2cc(C34CC5CC(CC(C5)C3)C4)nc2c1,"inconclusive: 18.4 µM [activator, single point]"
10,Cc1c(Cl)ccc2sc(N3CCN(C(=O)C4=COCCO4)CC3)nc12,"inconclusive: 29.1 µM [falling, single point]"
11,CCOc1ccc2[nH]c(=O)c(CN(Cc3ccco3)C(=O)c3ccc(Br)cc3)cc2c1,inactive
12,COc1ccccc1C(=O)Nc1ccc2nc(SCC(=O)N(C)c3ccccc3)sc2c1,inactive
13,CCS(=O)(=O)c1ncc(N(Cc2ccccc2)Cc2ccco2)c(C(=O)Nc2cccc(Cl)c2C)n1,inactive
14,Cc1ccc2nc3c(nc2c1C)CCCC3,inactive
15,CCN(CC)S(=O)(=O)c1ccc(NC(=O)CN(c2ccccc2)S(=O)(=O)N(C)C)cc1,"inconclusive: 0.461 µM [falling, full curve, poor fit]"
16,CCCCCC(=O)Nc1ccccc1N1CCN(c2ccccc2)CC1,inactive
17,O=C(CN1C(=O)C2(SCC(=O)N2c2cccc(Cl)c2)c2ccccc21)NCCc1ccccc1 (centres undefined),inactive
18,CC1=[N+](CC(=O)c2ccccc2)CCn2cccc21,"inconclusive: 8.2 µM [activator, partial curve]"
19,CCOc1ccc(CNC(=O)c2ccc3c(c2)c(C)c(C)n3Cc2ccccc2)cc1OC,"inconclusive: 29.1 µM [activator, single point]"
20,COC(=O)c1c[nH]n2c(=O)c(Cl)c(C)nc12,"inconclusive: 18.4 µM [activator, single point]"
21,Cc1ccc(NC(=O)c2ccc(F)cc2)cc1S(=O)(=O)N1CCCCCC1,"inconclusive: 29.1 µM [falling, single point]"
22,C=Cc1cccc(NC(=O)c2ccc(NC(=O)c3ccco3)cc2)c1,active: 10.3 µM

row,SMILES,Potency
1,CC(=O)NCCc1nc2cc(NC(=O)c3ccc(F)cc3)ccc2n1C,"inconclusive: 11.6 µM [activator, partial curve, poor fit]"
2,CC1=C2C(CCS2(=O)=O)CC2(C1)C(=O)OC(C)(C)OC2=O (centres undefined),"inconclusive: 29.1 µM [activator, single point]"
3,CCCCn1cnc2c(SCc3ccccc3Cl)nc(N)nc21,"inconclusive: 23.1 µM [falling, single point]"
4,Cc1sc(NC(=O)CSc2ncn(-c3ccccc3)n2)nc1-c1ccccc1,active: 11.6 µM
5,CS(=O)(=O)c1ccc(C(=O)NCCN2C(=O)S/C(=C\c3cccnc3)C2=O)cc1[N+](=O)[O-],inactive
6,CC1CC(C)CN(S(=O)(=O)c2ccc3c(c2)CC(C)N3C(=O)C2CCC2)C1 (centres undefined),"inconclusive: 29.1 µM [falling, single point]"
7,Cc1nn2c3cc(N4CCOCC4)ccc3nc2c2ccccc12,"inconclusive: 1.03 µM [activator, full curve, poor fit]"
8,O=C(CSc1nnc(-c2ccc(O)cc2)o1)N1CCOCC1,"inconclusive: 23.1 µM [activator, partial curve, poor fit]"
9,COC(=O)CCSCC(=O)N1N=C(c2ccc(Br)cc2)CC1c1cccc(OC)c1OC (centres undefined),"inconclusive: 16.4 µM [falling, single point]"
10,O=C(Nc1ccc(F)cc1)C1CCN(S(=O)(=O)c2cccc3nonc23)CC1,"inconclusive: 16.4 µM [falling, partial curve, poor fit]"
11,Nn1c(SCC(=O)Nc2ccc3c(c2)OCO3)nnc1-c1ccncc1,"inconclusive: 6.51 µM [falling, single point]"
12,COc1cccc(CNC(=O)CN2CCC(c3nc4ccc(C)cc4[nH]3)CC2)c1,active: 16.4 µM
13,CC(C)n1c(=O)[nH][nH]c1=S,inactive
14,CCc1ccc(-n2nnc(-c3nc(-c4cccs4)no3)c2N)cc1,"inconclusive: 9.2 µM [activator, partial curve]"
15,Cc1ccc(OCc2nc(-c3ccccc3)no2)c(C)c1,"inconclusive: 5.17 µM [activator, partial curve]"
16,CCCN(c1c(C)n(C)n(-c2ccccc2)c1=O)S(=O)(=O)c1ccc(C)cc1,inactive
17,OCCN1CCN(c2ncnc3sc(-c4ccccc4)cc23)CC1,"inconclusive: 0.82 µM [activator, partial curve]"
18,O=C(NCc1cccs1)C1CC(c2ccc(Cl)cc2)=NO1 (centres undefined),"inconclusive: 23.1 µM [activator, single point]"
19,COc1cccc(C2=CC(c3cc(OC)ccc3OC)n3nnnc3N2)c1 (centres undefined),"inconclusive: 29.1 µM [falling, single point]"
20,Cc1ccc2oc(-c3cccc(N)c3)nc2c1,"inconclusive: 1.64 µM [activator, full curve]"
21,COc1ccccc1C(=O)NC(C)c1ccccc1 (centres undefined),"inconclusive: 2.31 µM [activator, full curve, poor fit]"
22,COC(=O)CSc1ncc2c(n1)-c1ccccc1N(Cc1ccc(Cl)cc1)S2(=O)=O,"inconclusive: 18.4 µM [activator, single point]"

# Compounds shown so far with bromine, in the order listed:
row,SMILES,Potency
11,CCOc1ccc2[nH]c(=O)c(CN(Cc3ccco3)C(=O)c3ccc(Br)cc3)cc2c1,inactive
9,COC(=O)CCSCC(=O)N1N=C(c2ccc(Br)cc2)CC1c1cccc(OC)c1OC (centres undefined),"inconclusive: 16.4 µM [falling, single point]"
